This data set concerns the target EngHD (Engrailed homeodomain, DNA-binding domain) (Drosophila melanogaster) (UniProt P02836). Description: FCS. To be noted: Kd only plotted, between 38 bp and 600 bp trend, ~1 nM Alexa 488-EngHD with unlabeled dsDNA titrated, ionic strength 50 mM (NaCl) unless stated, recombinant protein.

Construct, isoform or probe ends are uncertain for at least one entry. At least one verdict rests on a figure or table, not on a statement of the authors.

For the sequence “CTCGAGTTCTTAACCAAATTGAATTCTCGCCACCGATCGTGTTCGCCCGAAATAAATCTGGCCGAAAAGCCATCAATCTACAATCTAACTGTGCCTCGGTTTATACCTCCAACTGCCGTTCACCGAAAAGGCCGACAGTTTTCCGACTAATTGTTCTTAACCAAATTGAATTCTCGCCACCGATCGTGTTCGCCCGAAATAAATCTGGCCGAAAAGCCATCAATCTACAATCTAACTGTGCCTCGGTTTATACCTCCAACTGCCGTTCACCGAAAAGGCCGACAGTTTTCCGACAAGCTT (double strand) [300 bp TAATTG]”, the binding result is given as “binds”.

For the origin of these results see publication PMC6987225.
